# Screening data

From PubChem BioAssay record AID504749 (NCATS, 2011).

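Malaria parasite (P. falciparum) lines kept in red blood cells; parasite DNA is measured by SYBR Green fluorescence after lysis, 72 h after compound addition. Each compound was titrated across a series from about 0.000037 to 29 µM. The number is the fitted AC50, the concentration giving a half-maximal change in signal; a lower value means higher potency, whether the curve shows a decrease or an increase. Calls follow the curve class and fit quality: every row here is inconclusive, covering signal-raising curves and weak, poorly fitted, partial or highest-dose-only inhibition curves.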

Values are in nM. Every entry below has the call inconclusive. Only part of the assay is shown, chiefly results filed as inconclusive. Potencies fitted to partial, single-point or poorly fitting curves are rough. Some entries filed as inconclusive have a full curve. The first word of each remark tells which way the curve ran; it can be opposite to the aim of the assay.

| # | Compound | condition | potency (nM) | curve |
|---|---|---|---|---|
| 1 | `COP(=O)(OC)C(O)C(Cl)(Cl)Cl` (centres unmarked) | AS120 | 17782 | inhibitor, single point |
| 2 | `COP(=O)(OC)C(O)C(Cl)(Cl)Cl` (centres unmarked) | ICS | 316.2 | inhibitor, single point |
| 3 | `COP(=O)(OC)C(O)C(Cl)(Cl)Cl` (centres unmarked) | ECU | 562.3 | inhibitor, full curve, poor fit |
| 4 | `COP(=O)(OC)C(O)C(Cl)(Cl)Cl` (centres unmarked) | GB4 | 19011 | inhibitor, single point |
| 5 | `COP(=O)(OC)C(O)C(Cl)(Cl)Cl` (centres unmarked) | parasite line A | 12589 | inhibitor, single point |
| 6 | `Cc1ccc2nc(N)[nH]c(=O)c2c1Sc1ccncc1` | TAB113 | 17782 | inhibitor, single point |
| 7 | `Cc1ccc2nc(N)[nH]c(=O)c2c1Sc1ccncc1` | SC27B | 17782 | inhibitor, single point |
| 8 | `Cc1ccc2nc(N)[nH]c(=O)c2c1Sc1ccncc1` | W2 | 19011 | inhibitor, partial curve, poor fit |
| 9 | `Cc1ccc2nc(N)[nH]c(=O)c2c1Sc1ccncc1` | 3D7 | 12589 | inhibitor, partial curve, poor fit |
| 10 | `Cc1ccc2nc(N)[nH]c(=O)c2c1Sc1ccncc1` | CP335 | 1069 | inhibitor, partial curve, poor fit |
| 11 | `CC(=O)N/N=C/c1ccc([N+](=O)[O-])o1` | CP185 | 5623 | inhibitor, partial curve |
| 12 | `CC(=O)N/N=C/c1ccc([N+](=O)[O-])o1` | CP217 | 5623 | inhibitor, partial curve |
| 13 | `CC(=O)N/N=C/c1ccc([N+](=O)[O-])o1` | TAB113 | 12589 | inhibitor, partial curve |
| 14 | `CC(=O)N/N=C/c1ccc([N+](=O)[O-])o1` | CP265 | 4467 | inhibitor, partial curve, poor fit |
| 15 | `CC(=O)N/N=C/c1ccc([N+](=O)[O-])o1` | JCK | 631 | inhibitor, full curve |
| 16 | `CC(=O)N/N=C/c1ccc([N+](=O)[O-])o1` | CP250 | 891.3 | inhibitor, full curve, poor fit |
| 17 | `CC(=O)N/N=C/c1ccc([N+](=O)[O-])o1` | CP256 | 19952 | inhibitor, single point |
| 18 | `CC(=O)N/N=C/c1ccc([N+](=O)[O-])o1` | CP252 | 17782 | inhibitor, single point |
| 19 | `CC(=O)N/N=C/c1ccc([N+](=O)[O-])o1` | HB3 | 11220 | inhibitor, single point |
| 20 | `CC(=O)N/N=C/c1ccc([N+](=O)[O-])o1` | SC27B | 19952 | inhibitor, single point |
| 21 | `CC(=O)N/N=C/c1ccc([N+](=O)[O-])o1` | PAD | 17782 | inhibitor, single point |
| 22 | `CC(=O)N/N=C/c1ccc([N+](=O)[O-])o1` | CP191 | 12589 | inhibitor, single point |
| 23 | `CC(=O)N/N=C/c1ccc([N+](=O)[O-])o1` | DFO2036 | 10000 | inhibitor, single point |
| 24 | `COc1ccc(-c2noc(CC(=O)O)c2-c2ccc(OC)cc2)cc1` | GB4 | 84.9 | inhibitor, full curve, poor fit |
| 25 | `COc1ccc(-c2noc(CC(=O)O)c2-c2ccc(OC)cc2)cc1` | CP203 | 19 | activator, full curve, poor fit |
| 26 | `O=C(Nc1ccc(Br)cc1)c1cc(Br)cc(Br)c1O` | CP203 | 2.7 | activator, full curve, poor fit |
| 27 | `O=C(Nc1ccc(Br)cc1)c1cc(Br)cc(Br)c1O` | CP262 | 3 | activator, full curve |
| 28 | `NS(=O)(=O)c1cc2c(cc1Cl)N[C@H](Cc1ccccc1)NS2(=O)=O` | ATS95 | 17782 | inhibitor, single point |
| 29 | `COc1ccc(/C=C/C(=O)OCCC(C)C)cc1` | CP297 | 1.3 | activator |
| 30 | `COc1cc(C(=O)NS(=O)(=O)c2ccccc2C)ccc1Cc1cn(C)c2ccc(NC(=O)OC3CCCC3)cc12` | parasite line B | 11220 | inhibitor, partial curve |
| 31 | `COc1cc(C(=O)NS(=O)(=O)c2ccccc2C)ccc1Cc1cn(C)c2ccc(NC(=O)OC3CCCC3)cc12` | CP247 | 17782 | inhibitor, single point |
| 32 | `COc1cc(C(=O)NS(=O)(=O)c2ccccc2C)ccc1Cc1cn(C)c2ccc(NC(=O)OC3CCCC3)cc12` | SC27B | 8912 | inhibitor, single point |
| 33 | `COc1cc(C(=O)NS(=O)(=O)c2ccccc2C)ccc1Cc1cn(C)c2ccc(NC(=O)OC3CCCC3)cc12` | DIV17 | 21331 | inhibitor, single point |
| 34 | `NNCCc1ccccc1` | ICS | 10000 | inhibitor, single point |
| 35 | `NNCCc1ccccc1` | CP266 | 1.1 | inhibitor |
| 36 | `NNCCc1ccccc1` | AS120 | 10000 | inhibitor, single point |
| 37 | `NNCCc1ccccc1` | TAB165 | 10000 | inhibitor, single point |
| 38 | `NNCCc1ccccc1` | 3D7 | 3981 | inhibitor, single point |

The first 4 entries again:

Compound	condition	potency (nM)	curve
COP(=O)(OC)C(O)C(Cl)(Cl)Cl (centres unmarked)	AS120	17782	inhibitor, single point
COP(=O)(OC)C(O)C(Cl)(Cl)Cl (centres unmarked)	ICS	316.2	inhibitor, single point
COP(=O)(OC)C(O)C(Cl)(Cl)Cl (centres unmarked)	ECU	562.3	inhibitor, full curve, poor fit
COP(=O)(OC)C(O)C(Cl)(Cl)Cl (centres unmarked)	GB4	19011	inhibitor, single point